The supplement of paper PMC10849652
The list shows a part of the results.

Protein sequences, listed by entry. Tags and fused reporters are not part of them. Lines headed by an entry give the natural chain unless they say otherwise; changes in a name come on top.
UniProt Q15776: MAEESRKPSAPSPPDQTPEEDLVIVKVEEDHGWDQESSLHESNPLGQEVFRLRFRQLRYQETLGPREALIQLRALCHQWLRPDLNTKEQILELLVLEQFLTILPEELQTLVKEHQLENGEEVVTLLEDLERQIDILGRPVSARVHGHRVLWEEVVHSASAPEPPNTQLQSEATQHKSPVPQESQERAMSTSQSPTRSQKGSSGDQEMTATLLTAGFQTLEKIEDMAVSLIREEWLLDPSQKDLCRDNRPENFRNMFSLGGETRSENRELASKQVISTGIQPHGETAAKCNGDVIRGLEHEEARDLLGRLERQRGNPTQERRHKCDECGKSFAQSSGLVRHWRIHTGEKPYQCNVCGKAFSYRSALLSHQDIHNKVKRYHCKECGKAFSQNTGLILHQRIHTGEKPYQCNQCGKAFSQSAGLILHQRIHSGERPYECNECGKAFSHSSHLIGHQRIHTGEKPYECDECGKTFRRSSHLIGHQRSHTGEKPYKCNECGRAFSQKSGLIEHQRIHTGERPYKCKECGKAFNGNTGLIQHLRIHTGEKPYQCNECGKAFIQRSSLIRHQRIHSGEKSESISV
UniProt O75152: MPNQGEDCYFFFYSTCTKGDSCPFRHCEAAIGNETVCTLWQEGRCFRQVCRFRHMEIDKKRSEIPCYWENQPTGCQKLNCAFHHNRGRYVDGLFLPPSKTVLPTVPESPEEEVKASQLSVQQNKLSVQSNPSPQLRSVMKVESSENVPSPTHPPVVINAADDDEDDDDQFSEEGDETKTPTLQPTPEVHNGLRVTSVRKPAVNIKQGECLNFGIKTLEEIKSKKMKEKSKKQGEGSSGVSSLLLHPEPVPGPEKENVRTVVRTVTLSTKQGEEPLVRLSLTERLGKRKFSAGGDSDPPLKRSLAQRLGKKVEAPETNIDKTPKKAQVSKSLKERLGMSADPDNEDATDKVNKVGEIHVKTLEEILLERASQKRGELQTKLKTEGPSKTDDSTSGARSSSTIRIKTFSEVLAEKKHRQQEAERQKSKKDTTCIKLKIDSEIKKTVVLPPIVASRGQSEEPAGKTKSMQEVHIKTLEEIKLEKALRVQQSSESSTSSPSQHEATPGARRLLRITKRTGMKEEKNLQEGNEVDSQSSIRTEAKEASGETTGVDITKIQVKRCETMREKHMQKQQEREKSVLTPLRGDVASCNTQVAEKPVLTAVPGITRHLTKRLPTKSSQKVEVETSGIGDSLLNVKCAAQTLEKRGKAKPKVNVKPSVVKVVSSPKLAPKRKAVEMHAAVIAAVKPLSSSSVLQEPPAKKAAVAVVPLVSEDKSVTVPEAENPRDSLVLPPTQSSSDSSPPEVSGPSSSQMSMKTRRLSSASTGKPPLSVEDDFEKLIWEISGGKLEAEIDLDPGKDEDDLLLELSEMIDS
UniProt Q86T24: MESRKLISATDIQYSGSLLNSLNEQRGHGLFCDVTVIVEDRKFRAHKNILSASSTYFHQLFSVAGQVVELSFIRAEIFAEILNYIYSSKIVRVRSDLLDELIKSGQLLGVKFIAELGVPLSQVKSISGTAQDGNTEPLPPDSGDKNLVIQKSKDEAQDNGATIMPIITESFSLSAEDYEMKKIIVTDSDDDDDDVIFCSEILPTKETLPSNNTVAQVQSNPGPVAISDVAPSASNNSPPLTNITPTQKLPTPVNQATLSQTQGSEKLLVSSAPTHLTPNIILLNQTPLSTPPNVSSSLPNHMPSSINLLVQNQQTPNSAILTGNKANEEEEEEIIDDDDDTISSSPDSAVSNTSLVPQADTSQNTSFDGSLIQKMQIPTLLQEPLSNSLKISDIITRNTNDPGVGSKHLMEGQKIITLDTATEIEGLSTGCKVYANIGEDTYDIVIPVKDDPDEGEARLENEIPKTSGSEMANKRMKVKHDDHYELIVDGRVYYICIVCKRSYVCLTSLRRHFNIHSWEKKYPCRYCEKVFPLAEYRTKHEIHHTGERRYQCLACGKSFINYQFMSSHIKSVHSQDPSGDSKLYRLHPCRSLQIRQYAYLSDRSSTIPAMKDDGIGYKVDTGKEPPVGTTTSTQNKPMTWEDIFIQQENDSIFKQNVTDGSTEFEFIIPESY
UniProt Q96DA0: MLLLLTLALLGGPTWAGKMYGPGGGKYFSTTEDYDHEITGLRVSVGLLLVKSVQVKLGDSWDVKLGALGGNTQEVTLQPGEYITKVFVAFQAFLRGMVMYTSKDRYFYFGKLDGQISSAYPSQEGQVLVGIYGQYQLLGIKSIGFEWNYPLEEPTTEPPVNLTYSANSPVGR
UniProt O60293: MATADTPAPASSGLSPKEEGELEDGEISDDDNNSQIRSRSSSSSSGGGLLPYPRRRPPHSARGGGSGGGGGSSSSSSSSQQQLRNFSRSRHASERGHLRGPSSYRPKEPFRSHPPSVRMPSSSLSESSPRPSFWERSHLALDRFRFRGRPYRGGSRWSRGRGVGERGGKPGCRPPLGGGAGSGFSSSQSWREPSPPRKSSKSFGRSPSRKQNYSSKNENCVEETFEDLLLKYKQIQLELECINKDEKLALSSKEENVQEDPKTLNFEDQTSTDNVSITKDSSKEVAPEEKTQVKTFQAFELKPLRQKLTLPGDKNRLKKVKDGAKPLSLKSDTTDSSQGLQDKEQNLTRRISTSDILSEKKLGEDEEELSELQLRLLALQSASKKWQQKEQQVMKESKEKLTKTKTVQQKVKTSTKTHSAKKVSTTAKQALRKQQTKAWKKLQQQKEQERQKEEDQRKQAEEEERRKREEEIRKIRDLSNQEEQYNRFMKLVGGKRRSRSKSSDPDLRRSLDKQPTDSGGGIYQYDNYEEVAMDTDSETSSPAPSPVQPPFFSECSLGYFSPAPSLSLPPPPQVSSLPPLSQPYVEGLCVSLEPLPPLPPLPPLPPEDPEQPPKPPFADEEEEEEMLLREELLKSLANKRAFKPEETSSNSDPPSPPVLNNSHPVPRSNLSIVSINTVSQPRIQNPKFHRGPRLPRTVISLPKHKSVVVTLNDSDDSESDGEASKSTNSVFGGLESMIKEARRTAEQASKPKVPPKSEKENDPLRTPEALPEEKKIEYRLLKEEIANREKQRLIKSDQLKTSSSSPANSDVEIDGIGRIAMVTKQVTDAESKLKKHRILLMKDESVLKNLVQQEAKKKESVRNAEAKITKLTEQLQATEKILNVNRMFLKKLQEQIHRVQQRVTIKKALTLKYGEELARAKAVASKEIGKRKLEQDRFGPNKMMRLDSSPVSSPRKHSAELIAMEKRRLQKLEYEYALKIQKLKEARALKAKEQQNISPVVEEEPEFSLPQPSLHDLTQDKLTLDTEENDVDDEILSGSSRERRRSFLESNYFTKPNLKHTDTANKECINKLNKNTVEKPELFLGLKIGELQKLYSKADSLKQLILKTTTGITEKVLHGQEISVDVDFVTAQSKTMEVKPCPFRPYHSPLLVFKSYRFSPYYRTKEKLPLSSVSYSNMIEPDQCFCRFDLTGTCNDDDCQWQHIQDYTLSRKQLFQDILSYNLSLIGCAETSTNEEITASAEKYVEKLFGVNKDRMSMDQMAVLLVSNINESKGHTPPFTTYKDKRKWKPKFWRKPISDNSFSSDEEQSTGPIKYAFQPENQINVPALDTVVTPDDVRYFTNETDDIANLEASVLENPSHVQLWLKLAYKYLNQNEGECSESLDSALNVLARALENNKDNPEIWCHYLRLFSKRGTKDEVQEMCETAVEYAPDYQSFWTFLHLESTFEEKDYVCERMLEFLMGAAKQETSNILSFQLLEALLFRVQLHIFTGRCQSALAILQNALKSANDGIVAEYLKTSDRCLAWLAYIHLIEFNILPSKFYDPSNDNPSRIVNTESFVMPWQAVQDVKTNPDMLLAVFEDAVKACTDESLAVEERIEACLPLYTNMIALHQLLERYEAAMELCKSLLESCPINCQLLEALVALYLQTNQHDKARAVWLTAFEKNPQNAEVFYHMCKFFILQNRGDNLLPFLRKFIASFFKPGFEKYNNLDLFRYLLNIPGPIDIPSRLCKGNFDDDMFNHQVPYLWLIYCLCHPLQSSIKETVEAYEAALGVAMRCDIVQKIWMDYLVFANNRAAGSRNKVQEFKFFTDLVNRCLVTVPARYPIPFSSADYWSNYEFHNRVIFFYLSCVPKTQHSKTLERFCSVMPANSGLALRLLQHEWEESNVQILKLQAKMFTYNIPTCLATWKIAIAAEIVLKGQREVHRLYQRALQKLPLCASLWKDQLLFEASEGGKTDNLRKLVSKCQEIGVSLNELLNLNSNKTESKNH
UniProt O43829: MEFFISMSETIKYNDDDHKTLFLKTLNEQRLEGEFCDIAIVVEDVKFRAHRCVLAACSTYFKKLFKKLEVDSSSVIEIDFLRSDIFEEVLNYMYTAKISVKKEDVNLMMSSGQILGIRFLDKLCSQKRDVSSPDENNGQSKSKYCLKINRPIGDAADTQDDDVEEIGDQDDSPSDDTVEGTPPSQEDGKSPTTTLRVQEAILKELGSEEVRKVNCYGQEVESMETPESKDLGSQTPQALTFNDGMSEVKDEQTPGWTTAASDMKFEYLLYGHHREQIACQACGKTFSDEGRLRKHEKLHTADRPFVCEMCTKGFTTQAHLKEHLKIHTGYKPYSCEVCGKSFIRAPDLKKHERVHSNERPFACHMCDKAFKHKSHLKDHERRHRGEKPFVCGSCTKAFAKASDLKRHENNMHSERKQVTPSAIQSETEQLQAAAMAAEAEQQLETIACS
UniProt Q8NCN2: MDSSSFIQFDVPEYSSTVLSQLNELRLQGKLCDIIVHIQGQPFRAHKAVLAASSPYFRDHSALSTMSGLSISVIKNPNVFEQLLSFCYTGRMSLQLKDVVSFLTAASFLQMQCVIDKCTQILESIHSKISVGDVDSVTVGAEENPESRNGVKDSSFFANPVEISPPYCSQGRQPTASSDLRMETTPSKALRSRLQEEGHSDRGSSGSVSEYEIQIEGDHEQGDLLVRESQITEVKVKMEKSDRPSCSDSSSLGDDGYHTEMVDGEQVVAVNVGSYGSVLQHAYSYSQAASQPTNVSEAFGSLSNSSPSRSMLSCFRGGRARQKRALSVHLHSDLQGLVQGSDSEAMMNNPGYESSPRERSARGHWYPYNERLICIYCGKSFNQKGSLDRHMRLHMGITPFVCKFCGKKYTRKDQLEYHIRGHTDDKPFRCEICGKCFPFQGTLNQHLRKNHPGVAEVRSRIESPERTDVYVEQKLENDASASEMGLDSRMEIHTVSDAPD
UniProt O75191: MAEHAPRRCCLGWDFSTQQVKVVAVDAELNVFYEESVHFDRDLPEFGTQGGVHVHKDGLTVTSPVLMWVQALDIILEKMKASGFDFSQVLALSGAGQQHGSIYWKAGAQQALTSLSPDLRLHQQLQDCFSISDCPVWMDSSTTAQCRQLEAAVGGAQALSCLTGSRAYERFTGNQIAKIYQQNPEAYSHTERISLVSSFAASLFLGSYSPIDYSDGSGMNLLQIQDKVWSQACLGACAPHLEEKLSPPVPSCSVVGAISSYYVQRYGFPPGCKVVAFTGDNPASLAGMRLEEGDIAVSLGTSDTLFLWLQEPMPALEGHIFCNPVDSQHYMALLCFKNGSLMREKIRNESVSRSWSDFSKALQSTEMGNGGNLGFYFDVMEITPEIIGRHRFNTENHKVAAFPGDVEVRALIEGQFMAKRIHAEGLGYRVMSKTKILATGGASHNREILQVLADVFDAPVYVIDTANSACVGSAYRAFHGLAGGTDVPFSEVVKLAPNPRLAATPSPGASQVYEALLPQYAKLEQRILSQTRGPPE
UniProt Q8IUH4: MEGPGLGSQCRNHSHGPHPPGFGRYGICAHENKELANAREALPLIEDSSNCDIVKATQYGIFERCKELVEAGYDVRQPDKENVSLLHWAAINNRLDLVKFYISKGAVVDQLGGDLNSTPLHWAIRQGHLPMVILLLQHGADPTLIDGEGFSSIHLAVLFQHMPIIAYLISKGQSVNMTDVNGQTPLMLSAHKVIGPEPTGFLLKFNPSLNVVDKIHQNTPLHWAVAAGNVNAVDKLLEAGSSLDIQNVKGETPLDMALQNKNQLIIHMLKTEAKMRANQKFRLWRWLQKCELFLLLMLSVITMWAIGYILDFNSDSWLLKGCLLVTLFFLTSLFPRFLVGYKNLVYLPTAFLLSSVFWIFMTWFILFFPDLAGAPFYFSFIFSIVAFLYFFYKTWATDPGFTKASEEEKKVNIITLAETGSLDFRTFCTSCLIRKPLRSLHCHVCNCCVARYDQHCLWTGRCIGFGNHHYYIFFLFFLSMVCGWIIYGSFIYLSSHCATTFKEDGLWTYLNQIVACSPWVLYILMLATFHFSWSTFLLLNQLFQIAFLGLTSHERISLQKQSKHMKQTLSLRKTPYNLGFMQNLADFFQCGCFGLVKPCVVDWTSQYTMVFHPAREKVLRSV
UniProt Q9BQ24: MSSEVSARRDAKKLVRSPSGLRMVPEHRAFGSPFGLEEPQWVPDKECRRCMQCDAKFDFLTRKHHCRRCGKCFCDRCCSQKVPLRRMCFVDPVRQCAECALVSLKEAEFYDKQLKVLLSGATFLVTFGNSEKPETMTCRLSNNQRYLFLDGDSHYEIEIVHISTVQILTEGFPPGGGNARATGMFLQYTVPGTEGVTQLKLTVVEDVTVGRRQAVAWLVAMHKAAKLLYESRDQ

How the values were obtained:
Assay in all cases: log2 fold change, soluble protein after heating vs DMSO (PISA); higher = thermal stabilisation; K562 cells, 10 uM, 30 min; active = over 0.2 and 3.5 SD of the protein, either way, in both replicates (recomputed)
zotarolimus = compound: CO[C@H]1C[C@@H]2CC[C@@H](C)[C@@](O)(O2)C(=O)C(=O)N2CCCC[C@H]2C(=O)O[C@H]([C@H](C)C[C@@H]2CC[C@H](n3cnnn3)[C@H](OC)C2)CC(=O)[C@H](C)/C=C(\C)[C@@H](O)[C@@H](OC)C(=O)[C@H](C)C[C@H](C)/C=C/C=C/C=C/1C [zotarolimus]
Method in brief: (§1)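 Thermal stability values are relative to control samples and come from duplicates. They are expressed as log2 fold changes. For measurement, K562 cells (2×10^6 cells/mL) received 10 μM compound for 30 min, and aliquots were heated for 3 min over 48°C-58°C, pooled, and extracted at 4°C in PBS with 0.5% NP-40. Soluble protein, the supernatant after 21,000xg for 90 min, was quantified by TMTpro 16plex LC-MS/MS with equalised channel sums.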

idasanutlin = compound: COc1cc(C(=O)O)ccc1NC(=O)[C@@H]1N[C@@H](CC(C)(C)C)[C@](C#N)(c2ccc(Cl)cc2F)[C@H]1c1cccc(Cl)c1F [idasanutlin]
Method in brief: as §1

alisertib = compound: COc1cc(Nc2ncc3c(n2)-c2ccc(Cl)cc2C(c2c(F)cccc2OC)=NC3)ccc1C(=O)O [alisertib]
Method in brief: as §1

[1] = compound: COc1cccc2cc(-c3nc([C@H]4CC[C@H](C(=O)O)CC4)n4ncnc(N)c34)[nH]c12
Method in brief: as §1

[2] = compound: C[C@H](C1=CC=C(C=C1)C(=O)NC2=C3C=CNC3=NC=C2)N
Method in brief: as §1

tozasertib = compound: Cc1cc(Nc2cc(N3CCN(C)CC3)nc(Sc3ccc(NC(=O)C4CC4)cc3)n2)n[nH]1 [tozasertib]
Method in brief: as §1

filanesib = compound: CON(C)C(=O)N1N=C(c2cc(F)ccc2F)S[C@@]1(CCCN)c1ccccc1 [filanesib]
Method in brief: as §1

[3] = compound: CS(=O)(=O)c1ccc(-c2cnc(N)c(C(=O)Nc3ccccc3)n2)cc1
Method in brief: as §1

[4] = compound: COc1cc2nc(-c3cc(F)ccc3O)nc(N[C@@H]3CNC[C@H]3C(C)(C)O)c2cc1OC
Method in brief: as §1

gefitinib = compound: COc1cc2ncnc(Nc3ccc(F)c(Cl)c3)c2cc1OCCCN1CCOCC1 [gefitinib]
Method in brief: as §1

lapatinib = compound: CS(=O)(=O)CCNCc1ccc(-c2ccc3ncnc(Nc4ccc(OCc5cccc(F)c5)c(Cl)c4)c3c2)o1 [lapatinib]
Method in brief: as §1

pictilisib = compound: CS(=O)(=O)N1CCN(Cc2cc3nc(-c4cccc5[nH]ncc45)nc(N4CCOCC4)c3s2)CC1 [pictilisib]
Method in brief: as §1

duvelisib = compound: C[C@H](Nc1ncnc2nc[nH]c12)c1cc2cccc(Cl)c2c(=O)n1-c1ccccc1 [duvelisib]
Method in brief: as §1

gandotinib = compound: Cc1cc(Nc2cc(CN3CCOCC3)c3nc(C)c(Cc4ccc(Cl)cc4F)n3n2)n[nH]1 [gandotinib]
Method in brief: as §1

[5] = compound: Cc1cc(SCc2sc(-c3ccc(C(F)(F)F)cc3)nc2C)ccc1OCC(=O)O
Method in brief: as §1

[6] = compound: C[C@@H]1COCCN1C2=NC(=NC(=C2)C3(CC3)S(=O)(=O)C)C4=C5C=CNC5=CC=C4
Method in brief: as §1

ispinesib = compound: Cc1ccc(C(=O)N(CCCN)[C@@H](c2nc3cc(Cl)ccc3c(=O)n2Cc2ccccc2)C(C)C)cc1 [ispinesib]
Method in brief: as §1

[7] = compound: COC1=CC=C(C=C1)CN2C=CC3=C2C=C(C=C3)C(=O)NO
Method in brief: as §1

crizotinib = compound: C[C@@H](Oc1cc(-c2cnn(C3CCNCC3)c2)cnc1N)c1c(Cl)ccc(F)c1Cl [crizotinib]
Method in brief: as §1

doramapimod = compound: Cc1ccc(-n2nc(C(C)(C)C)cc2NC(=O)Nc2ccc(OCCN3CCOCC3)c3ccccc23)cc1 [doramapimod]
Method in brief: as §1

Measured: log2 fold change

ZFPM2 (UniProt Q8WW38)
inactive: zotarolimus -0.089 | idasanutlin -0.1 | alisertib -0.116 | [1] 0.159 | [2] -0.005 | tozasertib 0.011

ZBTB17 isoform 2 (UniProt Q13105)
inactive: filanesib -0.026 | alisertib 0.136 | [1] -0.006 | [3] -0.013

XIRP2 isoform 8 (UniProt A4UGR9)
inactive: filanesib 0.07 | zotarolimus 0.009 | idasanutlin -0.061 | alisertib 0.03 | [4] 0.076 | gefitinib 0.001 | [1] 0.034 | lapatinib -0.058 | pictilisib 0.07 | [3] 0.123 | [2] 0.129 | duvelisib -0.086 | gandotinib 0.082 | tozasertib -0.083 | [5] -0.046

ZKSCAN8 (UniProt Q15776)
inactive: filanesib 0.265 | [4] -0.212 | lapatinib 0.123 | pictilisib -0.143 | [3] -0.004 | [6] -0.042 | duvelisib -0.234 | gandotinib 0.244 | tozasertib 0.186 | [5] 0.058 | ispinesib -0.198

ZNF106 (UniProt Q9H2Y7)
inactive: filanesib 0.071 | [4] 0.298 | gefitinib 0.034 | lapatinib -0.383 | [3] 0.053 | duvelisib 0.07 | [5] -0.005

ZFPM1 (UniProt Q8IX07)
inactive: filanesib 0.016 | zotarolimus -0.028 | [4] 0.076 | gefitinib -0.154 | lapatinib -0.144 | [3] 0.05 | [6] 0.222 | [2] -0.139 | duvelisib 0.051 | tozasertib -0.037 | [5] -0.057 | ispinesib -0.127

ZC3H11A (UniProt O75152)
inactive: zotarolimus 0.138 | alisertib -0.032 | [4] -0.077 | gefitinib 0.035 | [1] -0.131 | lapatinib 0.075 | pictilisib 0.045 | [2] -0.066 | duvelisib -0.179 | gandotinib 0.241 | [5] 0.331

ZCCHC17 (UniProt Q9NP64)
inactive: [3] -0.069
active: filanesib 0.565

ZFP36L2 (UniProt P47974)
inactive: alisertib -0.035 | [1] 0.169

ZFAND3 (UniProt Q9H8U3)
inactive: filanesib -0.06 | zotarolimus -0.012 | idasanutlin 0.104 | alisertib -0.001 | [4] -0.134 | gefitinib 0.056 | [1] 0.025 | lapatinib 0.039 | pictilisib -0.13 | [3] -0.054 | [6] -0.084 | [2] -0.076 | duvelisib -0.038 | gandotinib -0.042 | tozasertib 0.022 | [5] -0.053 | ispinesib -0.056

ZKSCAN3 (UniProt Q9BRR0)
inactive: zotarolimus 0 | [2] 0.24

ZNF207 isoform 2 (UniProt O43670)
inactive: filanesib 0.044 | zotarolimus -0.333 | idasanutlin -0.083 | alisertib -0.038 | [4] -0.223 | gefitinib -0.096 | [1] 0.18 | lapatinib -0.276 | pictilisib -0.208 | [3] 0.02 | [6] -0.02 | [2] -0.011 | duvelisib -0.023 | gandotinib -0.014 | tozasertib 0.066 | [5] -0.08 | ispinesib 0.006

XP32 (UniProt Q5T750)
inactive: zotarolimus -0.256 | idasanutlin 0.477 | alisertib 1.1 | gefitinib 0.428 | [1] -0.004 | pictilisib 0.663 | [2] -0.258 | duvelisib -0.441 | gandotinib -0.109 | [5] -0.913 | ispinesib 0.364

ZBTB33 (UniProt Q86T24)
inactive: duvelisib 0.293 | [5] -0.068

ZFYVE26 (UniProt Q68DK2)
inactive: zotarolimus -0.194 | [2] 0.05

ZBTB24 (UniProt O43167)
inactive: filanesib 0.239 | zotarolimus 0.007 | idasanutlin 0.102 | [4] -0.054 | lapatinib 0.096 | pictilisib 0.054 | [3] -0.227 | [6] -0.399 | [2] 0.319 | duvelisib -0.186 | gandotinib 0.054 | tozasertib -0.057 | [5] -0.141 | ispinesib -0.279

ZFX isoform 3 (UniProt P17010)
inactive: tozasertib 0.304

ZG16B (UniProt Q96DA0)
inactive: filanesib -0.054 | idasanutlin -0.444 | alisertib 0.387 | [4] 0.56 | [1] 0.226 | lapatinib 1.14 | [3] 0.007

YIPF1 (UniProt Q9Y548)
inactive: filanesib 0.023 | zotarolimus -0.095 | alisertib -0.065 | [4] 0.036 | gefitinib 0.067 | [1] -0.009 | lapatinib -0.015 | [3] 0.064 | [2] -0.015 | tozasertib 0.039

ZNF225 (UniProt Q9UK10)
inactive: idasanutlin -0.197

YTHDF1 (UniProt Q9BYJ9)
inactive: [7] 0.186 | crizotinib -0.257 | [6] -0.43 | doramapimod 0.12

ZFC3H1 (UniProt O60293)
inactive: filanesib -0.091 | idasanutlin -0.007 | alisertib 0.33 | gefitinib -0.167 | [1] 0.194 | [3] 0.131 | ispinesib 0.014

XPA (UniProt P23025)
inactive: idasanutlin -0.002 | [4] -0.025 | gefitinib 0.06 | lapatinib -0.065 | pictilisib 0.151 | [6] 0.08 | gandotinib 0.021 | tozasertib -0.196 | ispinesib -0.132

XRCC2 (UniProt O43543)
inactive: zotarolimus 0.018 | alisertib 0.158 | [4] -0.011 | gefitinib -0.037 | [1] -0.019 | lapatinib -0.063 | [6] 0.135 | [2] -0.028 | duvelisib 0.036 | [5] 0.064

ZDHHC6 (UniProt Q9H6R6)
inactive: [4] 0.018 | lapatinib -0.031 | pictilisib -0.044 | [6] 0.067 | gandotinib -0.018

Quoted from above (three entries):
XPA (UniProt P23025)
inactive: idasanutlin -0.002 | [4] -0.025 | gefitinib 0.06 | lapatinib -0.065 | pictilisib 0.151 | [6] 0.08 | gandotinib 0.021 | tozasertib -0.196 | ispinesib -0.132

XRCC2 (UniProt O43543)
inactive: zotarolimus 0.018 | alisertib 0.158 | [4] -0.011 | gefitinib -0.037 | [1] -0.019 | lapatinib -0.063 | [6] 0.135 | [2] -0.028 | duvelisib 0.036 | [5] 0.064

ZDHHC6 (UniProt Q9H6R6)
inactive: [4] 0.018 | lapatinib -0.031 | pictilisib -0.044 | [6] 0.067 | gandotinib -0.018

Following part.

ZBTB44 (UniProt Q8NCP5)
inactive: idasanutlin 0.085

ZCRB1 (UniProt Q8TBF4)
inactive: filanesib 0.019 | [4] 0.091 | lapatinib 0.019 | pictilisib -0.008 | [3] 0.232 | gandotinib 0.209

ZBTB14 (UniProt O43829)
inactive: zotarolimus -0.015 | alisertib 0.067 | [1] -0.122 | [2] 0.236 | tozasertib -0.274 | ispinesib 0.093

ZBTB34 (UniProt Q8NCN2)
inactive: idasanutlin 0.204

XYLB (UniProt O75191)
inactive: [6] 0.097

ZDHHC16 (UniProt Q969W1)
inactive: filanesib 0.084 | gefitinib 0.116 | [3] 0.087

ZDHHC9 (UniProt Q9Y397)
inactive: pictilisib -0.206 | gandotinib 0.123 | ispinesib -0.114

ZBTB10 (UniProt Q96DT7)
inactive: filanesib 0.039 | zotarolimus -0.154 | idasanutlin 0.215 | alisertib -0.026 | [4] 0.02 | gefitinib -0.036 | [1] 0.051 | lapatinib 0.049 | pictilisib -0.161 | [3] -0.108 | [6] -0.087 | [2] 0.014 | gandotinib 0.045 | tozasertib -0.16

YBEY (UniProt P58557)
inactive: pictilisib 0.308 | gandotinib 0.195 | ispinesib -0.426

ZBED1 (UniProt O96006)
inactive: filanesib 0.088 | zotarolimus -0.143 | idasanutlin -0.036 | [4] -0.038 | gefitinib -0.172 | lapatinib 0.031 | [3] 0.223 | [6] -0.032 | [2] -0.28 | duvelisib 0.086 | tozasertib -0.003 | [5] 0.045

ZBTB7B isoform 2 (UniProt O15156)
inactive: filanesib 0.272 | [3] 0.096 | tozasertib 0.061

ZDHHC13 (UniProt Q8IUH4)
inactive: filanesib 0.031 | zotarolimus 0.147 | idasanutlin 0.089 | [3] 0.113 | [6] -0.105 | [2] 0.102 | ispinesib 0.009

ZFYVE21 isoform 2 (UniProt Q9BQ24)
inactive: idasanutlin 0.129 | pictilisib -0.155 | duvelisib -0.258 | gandotinib -0.226 | tozasertib -0.03 | [5] 0.215 | ispinesib -0.079

ZKSCAN4 (UniProt Q969J2)
inactive: zotarolimus 0.021 | idasanutlin 0.295 | [2] 0.186 | tozasertib 0.27 | ispinesib 0.338
